{
  "source": "patent US20120012822A1",
  "about": "“AROMATIC COMPOUND AND METHOD FOR PRODUCING SAME” (KEIO UNIVERSITY, priority 2009, published 2012)",
  "assay": "Evaluation of field-effect type organic thin-film transistor (carrier mobility)",
  "details": "Vsd −50 V",
  "data": [
    {"smiles": "CC[Si](CC)(CC)CCc1c2c(c(CC[Si](CC)(CC)CC)c3ccccc13)C(=O)c1c(c(CC[Si](CC)(CC)CC)c3ccccc3c1CC[Si](CC)(CC)CC)C2=O", "note": "[5,7,12,14-tetrakis(2-(triethylsilyl)ethyl)pentacene-6,13-dione]", "values": [
      {"measurement": "carrier mobility", "setting": "organic semiconductor layer approx. 80 nm, 1:1 (weight) mixture with polymer TFB, spin coated from 0.5 wt % chloroform solution, Vg 0 V to −60 V, channel length 20 μm, width 2 mm", "result": "5.8×10^−4 cm^2/Vs"}
    ]},
    {"smiles": "CC[Si](CC)(CC)CCc1c2ccccc2c(CC[Si](CC)(CC)CC)c2cc3c(CC[Si](CC)(CC)CC)c4ccccc4c(CC[Si](CC)(CC)CC)c3cc12", "note": "[5,7,12,14-tetrakis(2-(triethylsilyl)ethyl)pentacene]", "values": [
      {"measurement": "carrier mobility", "setting": "compound alone, spin coated from 1 wt % chloroform solution, heated 100° C. 30 minutes in vacuum, Vg 0 V to −80 V, channel length 5 μm, width 38 mm", "result": "4.8×10^−6 cm^2/Vs"}
    ]}
  ]
}
